Results from the supplement of paper PMC10849652.
The other results are listed elsewhere or left out. Residues, ends and D or L forms follow the SMILES beside them. *: point of attachment. Cbz = O=C(OCc1ccccc1)*

Amino acid sequences for entries named in this document (tags omitted). A change or cut given only in a name is not applied to a line headed by its entry.
UniProt Q9NZJ5: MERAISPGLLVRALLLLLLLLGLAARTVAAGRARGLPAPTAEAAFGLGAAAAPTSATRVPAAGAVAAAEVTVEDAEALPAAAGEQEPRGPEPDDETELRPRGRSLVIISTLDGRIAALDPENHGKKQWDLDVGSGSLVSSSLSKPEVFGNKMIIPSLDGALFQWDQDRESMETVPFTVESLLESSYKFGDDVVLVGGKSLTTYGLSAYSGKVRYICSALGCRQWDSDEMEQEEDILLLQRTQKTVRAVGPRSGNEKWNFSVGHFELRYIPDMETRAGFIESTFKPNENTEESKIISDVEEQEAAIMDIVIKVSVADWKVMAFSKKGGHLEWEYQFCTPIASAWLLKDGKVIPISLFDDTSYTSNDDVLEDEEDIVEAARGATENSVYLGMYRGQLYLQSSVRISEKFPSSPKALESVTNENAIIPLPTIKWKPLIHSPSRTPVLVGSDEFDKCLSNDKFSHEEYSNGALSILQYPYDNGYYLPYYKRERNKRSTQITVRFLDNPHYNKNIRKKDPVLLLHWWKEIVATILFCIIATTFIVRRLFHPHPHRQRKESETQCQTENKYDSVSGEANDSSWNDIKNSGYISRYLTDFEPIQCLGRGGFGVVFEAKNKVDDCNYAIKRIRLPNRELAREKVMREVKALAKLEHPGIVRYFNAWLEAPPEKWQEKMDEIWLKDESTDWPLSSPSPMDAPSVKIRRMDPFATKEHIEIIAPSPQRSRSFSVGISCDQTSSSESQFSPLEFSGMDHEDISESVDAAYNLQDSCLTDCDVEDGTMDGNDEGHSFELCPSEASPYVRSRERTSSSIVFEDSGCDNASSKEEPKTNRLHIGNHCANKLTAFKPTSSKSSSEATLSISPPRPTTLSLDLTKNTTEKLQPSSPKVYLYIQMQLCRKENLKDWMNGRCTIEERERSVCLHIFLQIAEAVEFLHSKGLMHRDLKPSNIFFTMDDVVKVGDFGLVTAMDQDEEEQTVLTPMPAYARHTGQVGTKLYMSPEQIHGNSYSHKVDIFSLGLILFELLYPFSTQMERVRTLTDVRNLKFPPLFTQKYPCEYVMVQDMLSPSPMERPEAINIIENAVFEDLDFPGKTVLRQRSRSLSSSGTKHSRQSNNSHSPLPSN
UniProt Q9H777: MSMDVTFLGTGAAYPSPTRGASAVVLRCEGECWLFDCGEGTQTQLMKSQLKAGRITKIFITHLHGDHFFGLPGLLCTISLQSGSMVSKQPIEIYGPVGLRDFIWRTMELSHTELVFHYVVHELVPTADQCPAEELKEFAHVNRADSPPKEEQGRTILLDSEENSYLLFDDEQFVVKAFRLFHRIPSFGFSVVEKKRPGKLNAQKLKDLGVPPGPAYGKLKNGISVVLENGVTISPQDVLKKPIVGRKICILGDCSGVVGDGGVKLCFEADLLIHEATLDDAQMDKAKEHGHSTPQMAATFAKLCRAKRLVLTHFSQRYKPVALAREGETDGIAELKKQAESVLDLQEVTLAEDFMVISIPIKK
UniProt Q12805: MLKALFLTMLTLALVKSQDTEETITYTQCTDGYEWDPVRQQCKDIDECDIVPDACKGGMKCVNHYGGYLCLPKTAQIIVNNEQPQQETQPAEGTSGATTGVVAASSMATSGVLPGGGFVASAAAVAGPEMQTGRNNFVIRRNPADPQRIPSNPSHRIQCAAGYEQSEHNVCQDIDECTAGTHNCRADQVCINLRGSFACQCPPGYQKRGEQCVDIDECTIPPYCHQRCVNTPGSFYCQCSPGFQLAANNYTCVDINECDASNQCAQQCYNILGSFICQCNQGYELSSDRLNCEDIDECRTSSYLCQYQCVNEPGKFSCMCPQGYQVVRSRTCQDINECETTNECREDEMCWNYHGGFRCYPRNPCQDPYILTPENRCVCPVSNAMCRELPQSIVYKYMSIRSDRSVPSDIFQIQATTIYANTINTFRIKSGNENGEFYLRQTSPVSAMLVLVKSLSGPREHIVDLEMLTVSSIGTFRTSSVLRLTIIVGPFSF
UniProt Q9H9B1: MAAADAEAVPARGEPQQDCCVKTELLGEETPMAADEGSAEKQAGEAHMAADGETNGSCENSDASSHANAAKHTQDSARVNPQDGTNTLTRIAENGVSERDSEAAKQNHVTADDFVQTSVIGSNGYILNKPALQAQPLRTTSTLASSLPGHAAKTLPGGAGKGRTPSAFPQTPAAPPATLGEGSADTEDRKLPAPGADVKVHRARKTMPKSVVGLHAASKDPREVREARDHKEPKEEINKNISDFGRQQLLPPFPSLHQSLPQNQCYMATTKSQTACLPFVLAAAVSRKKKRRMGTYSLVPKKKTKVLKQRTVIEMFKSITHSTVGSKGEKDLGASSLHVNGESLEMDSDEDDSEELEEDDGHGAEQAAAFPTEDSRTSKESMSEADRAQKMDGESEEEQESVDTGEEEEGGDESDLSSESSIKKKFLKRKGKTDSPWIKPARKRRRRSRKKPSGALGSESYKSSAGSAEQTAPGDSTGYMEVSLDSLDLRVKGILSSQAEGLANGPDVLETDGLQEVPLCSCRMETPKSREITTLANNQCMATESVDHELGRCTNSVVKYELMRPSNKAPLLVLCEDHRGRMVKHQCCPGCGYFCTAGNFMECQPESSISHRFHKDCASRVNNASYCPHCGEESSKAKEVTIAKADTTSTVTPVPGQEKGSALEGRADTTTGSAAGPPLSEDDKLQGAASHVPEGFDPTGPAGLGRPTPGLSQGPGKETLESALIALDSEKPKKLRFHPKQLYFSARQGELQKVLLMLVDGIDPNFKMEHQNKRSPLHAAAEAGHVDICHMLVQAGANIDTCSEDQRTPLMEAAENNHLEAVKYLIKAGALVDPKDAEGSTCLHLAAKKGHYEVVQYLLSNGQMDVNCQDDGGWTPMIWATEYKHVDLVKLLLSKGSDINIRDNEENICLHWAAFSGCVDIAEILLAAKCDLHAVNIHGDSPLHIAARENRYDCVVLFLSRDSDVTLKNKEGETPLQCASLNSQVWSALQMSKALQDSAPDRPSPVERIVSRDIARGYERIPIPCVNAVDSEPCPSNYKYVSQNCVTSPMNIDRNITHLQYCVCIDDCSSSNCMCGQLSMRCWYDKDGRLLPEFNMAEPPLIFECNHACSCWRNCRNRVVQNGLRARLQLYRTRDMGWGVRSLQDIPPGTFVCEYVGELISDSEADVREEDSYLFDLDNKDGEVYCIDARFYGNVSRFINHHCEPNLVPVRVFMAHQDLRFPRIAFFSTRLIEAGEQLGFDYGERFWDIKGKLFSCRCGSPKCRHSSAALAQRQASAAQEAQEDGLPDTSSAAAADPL
UniProt Q9GZT9: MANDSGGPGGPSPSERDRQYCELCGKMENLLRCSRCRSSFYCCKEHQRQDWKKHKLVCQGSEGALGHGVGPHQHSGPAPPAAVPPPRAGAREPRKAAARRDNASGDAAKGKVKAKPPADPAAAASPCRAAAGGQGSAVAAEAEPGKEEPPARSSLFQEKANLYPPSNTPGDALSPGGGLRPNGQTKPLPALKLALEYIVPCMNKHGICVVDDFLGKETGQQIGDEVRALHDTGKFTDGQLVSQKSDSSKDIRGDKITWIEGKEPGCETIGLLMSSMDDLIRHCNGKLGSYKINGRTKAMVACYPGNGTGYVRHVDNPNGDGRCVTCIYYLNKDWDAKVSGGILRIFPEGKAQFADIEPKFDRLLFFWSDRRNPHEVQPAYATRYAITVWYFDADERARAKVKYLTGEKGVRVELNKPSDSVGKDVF
UniProt Q9UI10, whole entry, looked up: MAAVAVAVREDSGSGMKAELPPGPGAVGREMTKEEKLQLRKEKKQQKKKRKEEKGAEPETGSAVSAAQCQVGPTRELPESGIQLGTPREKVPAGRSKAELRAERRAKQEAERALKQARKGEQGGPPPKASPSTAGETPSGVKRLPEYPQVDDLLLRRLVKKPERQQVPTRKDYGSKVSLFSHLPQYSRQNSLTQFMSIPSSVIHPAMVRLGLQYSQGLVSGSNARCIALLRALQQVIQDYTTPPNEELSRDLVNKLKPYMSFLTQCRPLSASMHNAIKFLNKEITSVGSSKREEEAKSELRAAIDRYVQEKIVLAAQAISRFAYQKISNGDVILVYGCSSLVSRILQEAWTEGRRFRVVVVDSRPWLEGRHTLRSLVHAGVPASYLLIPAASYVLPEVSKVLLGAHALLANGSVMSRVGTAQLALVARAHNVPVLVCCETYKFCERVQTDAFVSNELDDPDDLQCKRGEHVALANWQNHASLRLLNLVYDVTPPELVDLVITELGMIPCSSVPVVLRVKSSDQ
UniProt Q9BQI3, whole entry, looked up: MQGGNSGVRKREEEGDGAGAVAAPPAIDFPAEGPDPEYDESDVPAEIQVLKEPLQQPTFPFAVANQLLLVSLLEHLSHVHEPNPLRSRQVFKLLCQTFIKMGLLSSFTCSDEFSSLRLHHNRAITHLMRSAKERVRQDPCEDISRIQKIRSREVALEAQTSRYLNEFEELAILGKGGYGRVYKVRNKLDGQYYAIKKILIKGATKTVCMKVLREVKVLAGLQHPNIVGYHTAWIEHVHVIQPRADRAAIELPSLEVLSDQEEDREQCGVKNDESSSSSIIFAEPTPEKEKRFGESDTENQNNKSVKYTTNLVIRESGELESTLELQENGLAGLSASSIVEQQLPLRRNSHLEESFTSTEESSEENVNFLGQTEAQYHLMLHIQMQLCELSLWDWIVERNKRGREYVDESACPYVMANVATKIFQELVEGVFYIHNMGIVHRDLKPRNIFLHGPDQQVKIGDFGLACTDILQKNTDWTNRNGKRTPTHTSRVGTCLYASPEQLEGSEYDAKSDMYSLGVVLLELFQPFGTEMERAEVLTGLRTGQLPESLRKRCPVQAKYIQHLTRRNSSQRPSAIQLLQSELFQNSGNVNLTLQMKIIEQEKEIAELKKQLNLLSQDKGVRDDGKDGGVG
UniProt Q9NQZ7: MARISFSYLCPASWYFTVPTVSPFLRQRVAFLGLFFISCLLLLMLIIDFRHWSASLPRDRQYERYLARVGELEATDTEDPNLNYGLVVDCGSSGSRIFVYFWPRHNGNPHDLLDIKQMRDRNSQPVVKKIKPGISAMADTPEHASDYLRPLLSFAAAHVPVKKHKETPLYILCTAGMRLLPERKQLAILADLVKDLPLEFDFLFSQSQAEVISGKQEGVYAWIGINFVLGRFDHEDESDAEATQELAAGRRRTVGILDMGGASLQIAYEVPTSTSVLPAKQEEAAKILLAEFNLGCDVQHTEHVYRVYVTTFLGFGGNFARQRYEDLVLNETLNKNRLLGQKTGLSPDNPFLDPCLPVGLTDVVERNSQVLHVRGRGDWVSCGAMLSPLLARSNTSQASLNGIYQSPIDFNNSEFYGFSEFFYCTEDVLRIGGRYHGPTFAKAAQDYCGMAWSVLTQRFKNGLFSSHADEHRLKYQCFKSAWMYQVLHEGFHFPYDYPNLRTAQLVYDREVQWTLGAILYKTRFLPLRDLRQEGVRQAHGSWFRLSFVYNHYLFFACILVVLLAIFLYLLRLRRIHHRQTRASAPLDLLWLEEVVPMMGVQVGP
UniProt P32519: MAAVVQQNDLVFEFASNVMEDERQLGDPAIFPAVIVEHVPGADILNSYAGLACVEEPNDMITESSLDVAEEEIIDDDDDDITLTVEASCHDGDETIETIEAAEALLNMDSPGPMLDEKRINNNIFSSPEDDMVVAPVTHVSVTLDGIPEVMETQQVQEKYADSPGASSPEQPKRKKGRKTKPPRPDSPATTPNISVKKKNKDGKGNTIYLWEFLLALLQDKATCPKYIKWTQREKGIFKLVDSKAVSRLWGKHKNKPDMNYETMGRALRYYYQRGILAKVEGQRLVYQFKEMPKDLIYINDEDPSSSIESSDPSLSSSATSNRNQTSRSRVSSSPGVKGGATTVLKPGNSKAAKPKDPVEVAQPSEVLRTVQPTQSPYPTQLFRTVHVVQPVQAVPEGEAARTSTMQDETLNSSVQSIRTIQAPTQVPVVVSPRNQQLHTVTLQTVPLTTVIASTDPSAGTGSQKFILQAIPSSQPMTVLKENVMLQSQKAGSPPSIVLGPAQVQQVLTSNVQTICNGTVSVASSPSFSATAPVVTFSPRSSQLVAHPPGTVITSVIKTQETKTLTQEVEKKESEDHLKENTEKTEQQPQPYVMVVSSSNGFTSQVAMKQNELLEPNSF
UniProt O60739, whole entry, looked up: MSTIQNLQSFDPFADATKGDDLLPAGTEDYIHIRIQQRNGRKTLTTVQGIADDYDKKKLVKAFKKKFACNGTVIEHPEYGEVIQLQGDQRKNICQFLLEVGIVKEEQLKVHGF
UniProt P24534: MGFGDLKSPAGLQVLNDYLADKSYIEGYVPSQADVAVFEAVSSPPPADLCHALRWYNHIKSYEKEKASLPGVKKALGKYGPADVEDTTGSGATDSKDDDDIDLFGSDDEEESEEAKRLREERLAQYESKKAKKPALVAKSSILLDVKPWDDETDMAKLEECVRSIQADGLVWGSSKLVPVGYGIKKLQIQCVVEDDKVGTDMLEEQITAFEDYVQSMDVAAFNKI

How the values were obtained:
Assay in all cases: log2 fold change, soluble protein after heating vs DMSO (PISA); higher = thermal stabilisation; K562 cells, 10 uM, 30 min; active = over 0.2 and 3.5 SD of the protein, either way, in both replicates (recomputed)
IRAK-1-4 Inhibitor I = compound: C1COCCN1CCN2C3=CC=CC=C3N=C2NC(=O)C4=CC(=CC=C4)[N+](=O)[O-] [IRAK-1-4 Inhibitor I]
Outline: (§1)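 K562 cells at 2×10^6 cells/mL were treated for 30 min with 10 μM compound, and aliquots were heated for 3 min over 48°C-58°C before pooling. Extraction used PBS with 0.5% NP-40 at 4°C, and soluble protein was the supernatant after 21,000xg for 90 min, measured by TMTpro 16plex LC-MS/MS with channel sums equalised. Thermal stability values, relative to control samples and from duplicates, are log2 fold changes.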

ibrutinib = compound: C=CC(=O)N1CCC[C@@H](n2nc(-c3ccc(Oc4ccccc4)cc3)c3c(N)ncnc32)C1 [ibrutinib]
Outline: as §1

[1] = compound: CC(=O)c1cnc2ccc(-c3cc(Cl)c(O)c(Cl)c3)nc2c1N[C@H]1CC[C@H](CN(C)C)CC1
Outline: as §1

[2] = compound: CC(C)(O)CC(=O)NCCn1ccc2ncnc(Nc3ccc(Oc4cccc(C(F)(F)F)c4)c(Cl)c3)c21
Outline: as §1

[3] = compound: CC(C)C1=C2N=C(C=C(N2N=C1)NCC3=CC=CC=C3)NCCCCCCN
Outline: as §1

pinometostat = compound: CC(C)N(C[C@H]1O[C@@H](n2cnc3c(N)ncnc32)[C@H](O)[C@@H]1O)[C@H]1C[C@@H](CCc2nc3cc(C(C)(C)C)ccc3[nH]2)C1 [pinometostat]
Outline: as §1

[4] = compound: CC1=C(C2=C(C=C1)C(=O)C3=CC=CC=C3N2CCCN)C
Outline: as §1

ralimetinib = compound: CC(C)(C)Cn1c(N)nc2ccc(-c3[nH]c(C(C)(C)C)nc3-c3ccc(F)cc3)nc21 [ralimetinib]
Outline: as §1

[5] = compound: CC(C)C[C@@H](C=O)NC(=O)[C@H](CC(C)C)NC(=O)[C@H](CC(C)C)NC(=O)OCc1ccccc1
Outline: as §1

Target | log2 fold change (IRAK-1-4 Inhibitor I) | log2 fold change (ibrutinib) | log2 fold change [1] | log2 fold change [2] | log2 fold change [3] | log2 fold change (pinometostat) | log2 fold change [4] | log2 fold change (ralimetinib) | log2 fold change [5]
EIF2AK3 (UniProt Q9NZJ5) | inactive: -0.136 | inactive: 0.13 | inactive: -0.369 | inactive: -0.322 | inactive: 0.011 | inactive: -0.048 | inactive: 0.032 | – | –
ELAC1 (UniProt Q9H777) | inactive: 0.028 | – | inactive: 0.027 | inactive: 0.027 | inactive: 0.116 | inactive: -0.129 | – | – | –
EFEMP1 (UniProt Q12805) | inactive: 0.055 | – | inactive: 0.067 | – | inactive: 0.048 | inactive: -0.141 | inactive: -0.184 | inactive: -0.002 | inactive: 0.05
EHMT1 (UniProt Q9H9B1) | inactive: -0.144 | inactive: -0.357 | inactive: -0.053 | inactive: -0.028 | inactive: -0.059 | inactive: 0.109 | inactive: -0.063 | inactive: -0.03 | inactive: 0.049
EMD (UniProt P50402) | inactive: 0.039 | inactive: 0.009 | inactive: -0.021 | inactive: 0.028 | inactive: -0.114 | inactive: 0.013 | inactive: -0.042 | inactive: -0.004 | inactive: 0.034
ENO2 (UniProt U3KQQ1) | inactive: 0.088 | inactive: 0.22 | – | – | – | inactive: 0 | – | – | –
EIF3I (UniProt Q5TFK1) | inactive: -0.152 | – | inactive: -0.063 | – | – | inactive: -0.053 | inactive: 0.109 | inactive: 0.09 | inactive: -0.178
EGLN1 (UniProt Q9GZT9) | inactive: 0.016 | inactive: -0.054 | inactive: -0.027 | inactive: -0.01 | inactive: -0.083 | inactive: 0.045 | inactive: -0.029 | inactive: -0.034 | inactive: 0.018
EIF2B4 (UniProt Q9UI10) | inactive: -0.029 | inactive: -0.614 | inactive: 0.084 | inactive: -0.217 | inactive: -0.099 | inactive: 0.09 | inactive: 0.136 | – | –
EIF2AK1 (UniProt Q9BQI3) | inactive: -0.016 | inactive: 0.018 | inactive: 0.035 | inactive: 0.056 | inactive: 0.023 | inactive: 0.031 | inactive: -0.114 | inactive: -0.011 | active: 0.279
EIF4ENIF1 isoform 3 (UniProt Q9NRA8) | inactive: 0.003 | inactive: 0.035 | inactive: -0.146 | inactive: -0.086 | inactive: -0.075 | inactive: 0.041 | inactive: -0.091 | inactive: 0.014 | inactive: -0.048
ENTPD7 (UniProt Q9NQZ7) | inactive: -0.146 | inactive: -0.013 | – | inactive: 0.181 | inactive: -0.043 | inactive: -0.009 | inactive: -0.016 | – | –
ELF1 (UniProt P32519) | inactive: -0.12 | – | inactive: 0.143 | active: -0.567 | inactive: -0.072 | inactive: 0.053 | inactive: -0.473 | inactive: 0.186 | inactive: -0.076
EIF1B (UniProt O60739) | inactive: 0.106 | inactive: 0.19 | – | inactive: -0.057 | inactive: 0.105 | inactive: -0.192 | – | inactive: 0.027 | inactive: -0.275
EIF3J isoform 2 (UniProt O75822) | inactive: 0.052 | inactive: 0.014 | inactive: -0.071 | inactive: -0.05 | inactive: 0.036 | inactive: -0.018 | inactive: 0.107 | – | –
EEF1B2 (UniProt P24534) | inactive: -0.01 | inactive: -0.054 | inactive: 0.009 | inactive: 0.011 | inactive: -0.069 | inactive: 0.001 | inactive: 0.047 | inactive: 0.003 | inactive: 0.04

An excerpt from above, showing only log2 fold change [4] and log2 fold change (ibrutinib):
Target | log2 fold change [4] | log2 fold change (ibrutinib)
EIF4ENIF1 isoform 3 (UniProt Q9NRA8) | inactive: -0.091 | inactive: 0.035
ENTPD7 (UniProt Q9NQZ7) | inactive: -0.016 | inactive: -0.013
